Test results as given in PMC7042354, “Distinct surfaces on Cdc5/PLK Polo-box domain orchestrate combinatorial substrate recognition during cell division” (Scientific Reports, 2020).
Results are given in words; binding and its absence hold for the method and conditions named. Sequences can lack the tags named with a protein.

Target: T1, Cdc5-A567W variant of the polo-box domain (Saccharomyces cerevisiae) (UniProt P32562)
T1 sequence: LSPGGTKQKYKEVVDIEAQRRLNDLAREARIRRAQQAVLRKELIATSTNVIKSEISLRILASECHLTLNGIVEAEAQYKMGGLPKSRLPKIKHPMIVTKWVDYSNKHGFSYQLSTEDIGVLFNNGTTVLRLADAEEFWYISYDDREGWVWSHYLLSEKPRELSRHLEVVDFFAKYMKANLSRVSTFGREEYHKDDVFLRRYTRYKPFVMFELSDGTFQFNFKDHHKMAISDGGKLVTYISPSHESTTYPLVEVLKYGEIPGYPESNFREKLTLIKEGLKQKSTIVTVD
Test: condition: 45 µM protein in the chamber cell and 1.2 mM peptide in the injection syringe; ITC; MicroCal iTC200; 45 µM Cdc5-A567W in the chamber cell, 1.2 mM Dbf4 peptide in the syringe; storage buffer with 20 mM EDTA pH 8.0; both purified

B1: Dbf4-derived peptide (73-96) (peptide)
peptide: EKKRARIERARSIEGAVQVSKGTG
notes: Dbf4, regulatory subunit of the Dbf4-dependent kinase of budding yeast, residues 73-96; Peptide used for ITC and NMR; also called Dbf4 peptide; source: synthetic peptide, bought: GenScript
**Q.** For B1, which binding is on record?
**A.** no binding
